Consider two compounds from article PMC7432475, “β-Carbolines in Experiments on Laboratory Animals” (International Journal of Molecular Sciences, 2020).

Read-outs that look alike come from different tables or passages of the source.

The conditions of the data set: stage I.

Take `Cc1nccc2c1[nH]c1ccccc12` [H, harman]: the “Water [%] in feces” value is 21,90% (group H1 (10 µg H/kg diet)), 17,40% (group H2 (15 µg H/kg diet)) and 18,30% (group H3 (20 µg H/kg diet)).

As for `c1ccc2c(c1)[nH]c1cnccc12` [NH, norharman], the “Water [%] in feces” value (group NH1 (8 µg NH/kg diet)) was 20,70%, the “Water [%] in feces” value (group NH2 (12 µg NH/kg diet)) is on record as 22,40% and the “Water [%] in feces” value (group NH3 (16 µg NH/kg diet)) is given as 26,90%.
